Our source for the relative growth values is PubChem BioAssay AID720641 (ICCB-Longwood Screening Facility, Harvard Medical School, 2013).

The other results are listed elsewhere or left out. Some tests of the compounds listed are not included; inactive here does not mean inactive elsewhere.

This experiment can be described thus: S. aureus growth inhibition at 42 and 30 °C, primary screen, LtaS inhibitor project, RN4220, two temperatures (AID 720641). Particulars: OD600, 20 h, 42 °C, measured here: growth at 30 °C, stronger effect = lower value.
Molecule `O=C(NCC1(N2CCCCC2)CCCCC1)c1ccc2c(c1)OCCO2` came in with a relative growth of 95.8%. Consider `CC(C)Oc1ccc(C(=O)NCC2(N(C)C)CCCCC2)cc1`, for which the relative growth turned out to be 87.7%. For `COc1cc(C(=O)NCC2(N(C)C)CCCCC2)cc(OC)c1OC` the value was 87.5%; for `Cc1cccc(C(=O)NCC2(N(C)C)CCCCC2)c1`, 85.9%. For `CN1C2CCC1CC(OC(=O)C(O)(c1ccccc1)c1ccccc1)C2` (centres undefined) the value was 104%; for `CC(C)COc1ccc(C(=O)NCC2(N(C)C)CCCCC2)cc1`, 84.3%; for `O=C(OC1CN2CCC1CC2)C(CO)(c1ccccc1)c1ccccc1` (centres undefined), 87.2%. Under `COc1cccc(C(=O)NCC2(N3CCOCC3)CCCCC2)c1` stands 91.3%; under `COc1ccc(C(=O)NCC2(N(C)C)CCCCC2)cc1Cl`, 90.2%; under `CN(C)C1(CNC(=O)c2ccncc2)CCCCC1`, 90.5%. `N#CC(C#N)=Cc1ccccc1` had a relative growth of 72.2%. `CCOc1cccc(C(=O)NCC2(N(C)C)CCCCC2)c1` displayed a relative growth of 87.3%.

Molecule `COc1ccc(OC)c(C=C(C#N)C#N)c1` had a relative growth of 66.9%. For `CCCCOc1ccccc1C(=O)NCC1(N(C)C)CCCCC1` the value was 93.6%. Under `CN(C)C1(CNC(=O)c2ccccc2[N+](=O)[O-])CCCCC1` stands 87.4%; under `CN(C)c1ccc(C(=O)NCC2(N(C)C)CCCCC2)cc1`, 88.6%. Under `CN(C)C1(CNC(=O)c2ccccc2F)CCCCC1` stands 86.3%. In the case of `CN(C)C1(CNC(=O)c2cccc(Cl)c2)CCCCC1`, the relative growth came to 87%. For `O=C(NCC1(N2CCOCC2)CCCCC1)c1cnc(Cl)c(Cl)c1` the value was 90.1%.
